Test results from the supplement of paper PMC11006884.
The targets with a hit were mostly taken out for another list; the other results follow. Single values of this set are uncertain. The list shows a part of the results, in another mix than the full data.

By UniProt entry, the sequences of proteins in these tests, tags left out. Where a name states a change or a piece, a line headed by the entry shows the natural chain unless it says otherwise.
UniProt Q7Z4Q2: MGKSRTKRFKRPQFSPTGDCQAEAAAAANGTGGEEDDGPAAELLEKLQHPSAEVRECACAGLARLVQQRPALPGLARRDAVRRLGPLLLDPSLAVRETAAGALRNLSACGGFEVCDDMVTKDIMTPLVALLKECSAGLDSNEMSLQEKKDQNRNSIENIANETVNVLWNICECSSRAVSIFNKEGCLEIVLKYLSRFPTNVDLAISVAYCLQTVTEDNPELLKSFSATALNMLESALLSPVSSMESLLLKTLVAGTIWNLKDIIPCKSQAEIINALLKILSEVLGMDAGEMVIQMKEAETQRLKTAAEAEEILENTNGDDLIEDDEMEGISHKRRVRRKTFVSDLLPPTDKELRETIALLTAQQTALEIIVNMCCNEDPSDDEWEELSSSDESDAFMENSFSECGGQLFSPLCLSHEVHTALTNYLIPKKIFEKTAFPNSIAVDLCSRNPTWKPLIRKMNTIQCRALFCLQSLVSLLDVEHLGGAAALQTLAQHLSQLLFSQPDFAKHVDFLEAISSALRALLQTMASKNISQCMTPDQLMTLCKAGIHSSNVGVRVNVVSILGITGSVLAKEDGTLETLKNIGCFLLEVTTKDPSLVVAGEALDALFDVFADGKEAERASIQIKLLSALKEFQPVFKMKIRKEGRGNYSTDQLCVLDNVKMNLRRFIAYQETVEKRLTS
UniProt Q8IX01: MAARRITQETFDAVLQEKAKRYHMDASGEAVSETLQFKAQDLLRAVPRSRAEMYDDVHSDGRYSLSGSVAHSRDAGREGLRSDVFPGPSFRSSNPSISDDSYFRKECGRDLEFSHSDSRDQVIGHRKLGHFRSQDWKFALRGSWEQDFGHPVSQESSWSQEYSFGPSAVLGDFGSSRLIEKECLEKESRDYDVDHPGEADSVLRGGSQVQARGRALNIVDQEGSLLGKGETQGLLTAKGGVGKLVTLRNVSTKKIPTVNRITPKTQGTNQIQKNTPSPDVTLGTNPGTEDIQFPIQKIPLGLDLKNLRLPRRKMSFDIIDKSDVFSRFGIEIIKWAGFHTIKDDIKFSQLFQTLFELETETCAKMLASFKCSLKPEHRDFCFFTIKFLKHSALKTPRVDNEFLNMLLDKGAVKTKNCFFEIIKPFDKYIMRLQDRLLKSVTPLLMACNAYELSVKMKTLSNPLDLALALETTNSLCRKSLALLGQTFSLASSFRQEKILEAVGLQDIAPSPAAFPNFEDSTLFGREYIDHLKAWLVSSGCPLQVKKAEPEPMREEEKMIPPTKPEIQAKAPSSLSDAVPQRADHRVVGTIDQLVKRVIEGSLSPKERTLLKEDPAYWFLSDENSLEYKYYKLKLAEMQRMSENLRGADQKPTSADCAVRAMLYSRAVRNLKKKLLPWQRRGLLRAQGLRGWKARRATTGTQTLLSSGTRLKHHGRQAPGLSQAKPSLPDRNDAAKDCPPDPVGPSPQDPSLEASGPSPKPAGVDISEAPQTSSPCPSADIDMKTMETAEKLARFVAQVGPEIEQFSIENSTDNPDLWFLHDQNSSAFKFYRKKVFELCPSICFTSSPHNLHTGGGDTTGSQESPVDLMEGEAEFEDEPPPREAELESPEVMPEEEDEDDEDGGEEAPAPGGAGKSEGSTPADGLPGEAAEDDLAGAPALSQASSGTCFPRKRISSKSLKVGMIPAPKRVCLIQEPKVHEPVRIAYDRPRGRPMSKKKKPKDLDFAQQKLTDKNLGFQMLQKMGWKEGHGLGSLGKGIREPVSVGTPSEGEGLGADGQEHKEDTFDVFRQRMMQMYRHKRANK
UniProt Q8IWB7: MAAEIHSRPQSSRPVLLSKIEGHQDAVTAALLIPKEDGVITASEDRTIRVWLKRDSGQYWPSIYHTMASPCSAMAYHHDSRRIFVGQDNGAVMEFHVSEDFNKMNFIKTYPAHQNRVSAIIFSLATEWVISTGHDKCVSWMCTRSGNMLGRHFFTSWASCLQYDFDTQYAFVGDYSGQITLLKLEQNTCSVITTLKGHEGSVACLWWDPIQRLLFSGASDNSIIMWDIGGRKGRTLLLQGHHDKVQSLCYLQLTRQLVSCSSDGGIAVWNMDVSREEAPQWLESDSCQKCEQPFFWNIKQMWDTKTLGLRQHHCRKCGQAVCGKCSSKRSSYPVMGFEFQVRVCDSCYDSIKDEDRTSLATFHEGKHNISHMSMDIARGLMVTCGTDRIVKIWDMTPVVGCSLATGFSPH
UniProt Q8IY81: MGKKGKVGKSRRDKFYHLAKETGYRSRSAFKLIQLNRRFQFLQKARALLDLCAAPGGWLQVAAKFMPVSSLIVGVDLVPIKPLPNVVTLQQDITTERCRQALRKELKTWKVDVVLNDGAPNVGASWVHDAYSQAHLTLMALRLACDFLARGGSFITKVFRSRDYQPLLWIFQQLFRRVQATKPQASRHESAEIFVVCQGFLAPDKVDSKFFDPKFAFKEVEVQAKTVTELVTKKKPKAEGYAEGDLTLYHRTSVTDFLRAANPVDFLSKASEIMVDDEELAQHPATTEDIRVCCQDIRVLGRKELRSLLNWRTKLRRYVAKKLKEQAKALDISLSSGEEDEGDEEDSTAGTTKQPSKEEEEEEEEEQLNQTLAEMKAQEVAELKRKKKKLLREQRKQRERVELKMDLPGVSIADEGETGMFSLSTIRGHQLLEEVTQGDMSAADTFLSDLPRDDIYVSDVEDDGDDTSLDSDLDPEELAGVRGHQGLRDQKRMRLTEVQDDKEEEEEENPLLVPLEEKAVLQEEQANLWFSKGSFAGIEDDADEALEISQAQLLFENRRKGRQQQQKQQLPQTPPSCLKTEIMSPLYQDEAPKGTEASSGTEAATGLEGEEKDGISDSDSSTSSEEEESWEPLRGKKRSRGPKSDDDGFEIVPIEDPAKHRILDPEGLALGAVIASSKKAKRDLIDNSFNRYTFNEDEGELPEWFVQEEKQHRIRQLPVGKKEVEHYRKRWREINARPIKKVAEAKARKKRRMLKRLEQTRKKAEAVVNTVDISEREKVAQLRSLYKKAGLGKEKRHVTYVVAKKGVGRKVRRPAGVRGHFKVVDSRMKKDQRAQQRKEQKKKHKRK
UniProt Q86Y56: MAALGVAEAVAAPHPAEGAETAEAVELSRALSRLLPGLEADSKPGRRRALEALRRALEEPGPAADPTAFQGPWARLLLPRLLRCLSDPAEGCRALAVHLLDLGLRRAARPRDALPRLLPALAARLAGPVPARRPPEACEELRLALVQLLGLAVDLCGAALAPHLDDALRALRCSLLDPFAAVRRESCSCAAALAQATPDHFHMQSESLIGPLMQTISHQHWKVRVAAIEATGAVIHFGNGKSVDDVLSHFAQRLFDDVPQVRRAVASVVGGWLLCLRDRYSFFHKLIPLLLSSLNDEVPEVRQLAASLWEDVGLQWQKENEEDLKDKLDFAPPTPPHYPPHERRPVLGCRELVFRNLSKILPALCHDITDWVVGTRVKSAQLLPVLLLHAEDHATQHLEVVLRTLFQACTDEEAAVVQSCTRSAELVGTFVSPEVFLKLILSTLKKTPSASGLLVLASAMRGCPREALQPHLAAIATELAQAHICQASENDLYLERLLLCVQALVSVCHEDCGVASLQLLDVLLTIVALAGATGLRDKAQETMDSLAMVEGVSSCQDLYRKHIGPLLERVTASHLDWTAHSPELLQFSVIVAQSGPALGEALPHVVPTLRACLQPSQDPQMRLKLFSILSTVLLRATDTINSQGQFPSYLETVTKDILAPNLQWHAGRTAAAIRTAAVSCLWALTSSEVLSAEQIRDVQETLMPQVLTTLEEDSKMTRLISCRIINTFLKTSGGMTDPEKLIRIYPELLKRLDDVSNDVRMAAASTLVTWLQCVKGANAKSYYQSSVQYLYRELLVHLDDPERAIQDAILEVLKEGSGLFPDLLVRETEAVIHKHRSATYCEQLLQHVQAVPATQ
UniProt Q7L2J0: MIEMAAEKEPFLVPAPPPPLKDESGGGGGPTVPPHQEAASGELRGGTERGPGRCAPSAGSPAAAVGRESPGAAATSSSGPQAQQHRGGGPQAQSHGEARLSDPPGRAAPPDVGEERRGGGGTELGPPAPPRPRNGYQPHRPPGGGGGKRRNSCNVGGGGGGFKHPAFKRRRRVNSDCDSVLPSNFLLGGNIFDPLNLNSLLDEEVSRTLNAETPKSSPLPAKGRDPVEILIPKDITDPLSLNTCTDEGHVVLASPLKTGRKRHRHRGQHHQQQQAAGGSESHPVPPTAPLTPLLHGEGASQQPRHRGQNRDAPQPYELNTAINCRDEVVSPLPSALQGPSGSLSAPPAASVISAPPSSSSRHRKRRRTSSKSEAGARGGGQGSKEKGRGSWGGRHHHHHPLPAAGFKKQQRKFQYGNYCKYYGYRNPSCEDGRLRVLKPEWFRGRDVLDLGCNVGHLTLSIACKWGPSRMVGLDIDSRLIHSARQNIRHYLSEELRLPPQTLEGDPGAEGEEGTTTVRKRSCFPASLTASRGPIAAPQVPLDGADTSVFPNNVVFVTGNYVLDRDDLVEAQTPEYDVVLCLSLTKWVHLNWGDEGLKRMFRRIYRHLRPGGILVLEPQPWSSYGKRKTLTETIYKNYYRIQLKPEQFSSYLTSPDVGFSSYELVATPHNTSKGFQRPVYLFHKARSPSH
UniProt Q7Z2Z2: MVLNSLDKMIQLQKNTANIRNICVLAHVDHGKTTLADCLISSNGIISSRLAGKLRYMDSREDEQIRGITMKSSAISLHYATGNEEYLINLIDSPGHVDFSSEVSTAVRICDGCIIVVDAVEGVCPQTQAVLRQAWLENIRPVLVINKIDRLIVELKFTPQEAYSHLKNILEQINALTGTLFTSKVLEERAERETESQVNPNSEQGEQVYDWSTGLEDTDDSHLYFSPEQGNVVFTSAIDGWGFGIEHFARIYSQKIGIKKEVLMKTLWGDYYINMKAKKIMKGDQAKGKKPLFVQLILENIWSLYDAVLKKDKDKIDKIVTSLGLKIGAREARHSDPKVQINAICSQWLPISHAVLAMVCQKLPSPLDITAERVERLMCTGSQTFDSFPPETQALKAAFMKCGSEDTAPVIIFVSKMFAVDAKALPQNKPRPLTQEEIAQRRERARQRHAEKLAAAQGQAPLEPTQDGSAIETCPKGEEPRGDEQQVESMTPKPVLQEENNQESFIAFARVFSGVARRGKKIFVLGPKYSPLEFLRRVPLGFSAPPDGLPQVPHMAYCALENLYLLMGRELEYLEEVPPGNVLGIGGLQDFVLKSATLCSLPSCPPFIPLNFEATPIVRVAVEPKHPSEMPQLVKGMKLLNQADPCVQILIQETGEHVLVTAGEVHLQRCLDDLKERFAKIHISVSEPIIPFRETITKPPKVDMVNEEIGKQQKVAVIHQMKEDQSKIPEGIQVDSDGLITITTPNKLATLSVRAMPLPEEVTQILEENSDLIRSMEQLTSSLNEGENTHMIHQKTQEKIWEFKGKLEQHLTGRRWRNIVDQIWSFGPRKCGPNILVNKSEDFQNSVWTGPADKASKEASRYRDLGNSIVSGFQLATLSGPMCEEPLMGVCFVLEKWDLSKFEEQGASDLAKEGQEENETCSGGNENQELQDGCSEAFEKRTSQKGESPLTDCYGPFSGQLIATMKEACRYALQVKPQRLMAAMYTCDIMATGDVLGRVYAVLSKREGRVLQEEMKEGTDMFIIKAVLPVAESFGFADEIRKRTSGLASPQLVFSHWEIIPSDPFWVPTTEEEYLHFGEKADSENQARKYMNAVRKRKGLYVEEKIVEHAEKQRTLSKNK
UniProt Q7KZF4: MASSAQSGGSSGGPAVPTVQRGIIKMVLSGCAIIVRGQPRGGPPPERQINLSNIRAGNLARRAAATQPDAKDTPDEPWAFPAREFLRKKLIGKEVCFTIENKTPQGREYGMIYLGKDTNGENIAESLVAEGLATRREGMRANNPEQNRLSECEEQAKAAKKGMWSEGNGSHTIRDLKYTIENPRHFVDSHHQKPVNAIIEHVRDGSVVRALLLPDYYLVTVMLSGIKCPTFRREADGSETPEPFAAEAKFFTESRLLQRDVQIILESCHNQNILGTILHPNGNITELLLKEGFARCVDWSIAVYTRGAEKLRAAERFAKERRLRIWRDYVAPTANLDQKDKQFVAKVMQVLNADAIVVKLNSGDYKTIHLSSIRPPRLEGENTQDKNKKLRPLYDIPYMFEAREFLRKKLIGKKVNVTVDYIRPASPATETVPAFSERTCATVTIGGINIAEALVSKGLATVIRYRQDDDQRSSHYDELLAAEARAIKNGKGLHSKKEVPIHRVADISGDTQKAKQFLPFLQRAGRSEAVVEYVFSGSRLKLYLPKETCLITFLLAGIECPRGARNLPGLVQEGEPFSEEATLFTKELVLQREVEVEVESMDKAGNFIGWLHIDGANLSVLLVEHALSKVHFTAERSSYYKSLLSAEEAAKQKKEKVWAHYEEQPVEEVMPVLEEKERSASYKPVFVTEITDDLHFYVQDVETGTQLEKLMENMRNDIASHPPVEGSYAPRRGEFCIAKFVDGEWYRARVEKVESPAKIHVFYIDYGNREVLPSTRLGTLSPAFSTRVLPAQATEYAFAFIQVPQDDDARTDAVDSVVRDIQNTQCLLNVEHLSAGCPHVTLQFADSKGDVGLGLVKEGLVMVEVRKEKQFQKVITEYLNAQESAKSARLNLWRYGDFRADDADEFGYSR

Compound: COC(=O)/C=C/c1ccccc1 [methyl cinnamate]
Test: log2 ratio of iodoacetamide-alkyne labeling of the cysteine site, DMSO over compound (competition); higher = stronger covalent engagement of the cysteine by the compound, active = 1 or more
Conditions: 500 µM; treatment time 1 h; system: HEK293T cell lysate
Outline: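 HEK293T lysate (2 mg/mL) was incubated with electrophile (500 µM) or vehicle for 1 h at ambient temperature and then with iodoacetamide alkyne for 1 h. Labelled proteins were clicked to sCIP-TMT reagents, pooled, digested, enriched on streptavidin and measured by Orbitrap Eclipse LC-MS/MS with FAIMS, with FragPipe quantification. The per-cysteine log2 competition ratio is mean control-channel reporter intensity over mean compound-channel reporter intensity. Across three replicates with duplicate channels, cysteines quantified in only one replicate were excluded.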

| Target | log2 ratio of iodoacetamide-alkyne labeling |
| --- | --- |
| UniProt Q7Z5K2_C293 | inactive: 0.0204 |
| HEATR3 C173 (UniProt Q7Z4Q2) | inactive: -0.115 |
| UniProt Q7L0Y3_C123 | inactive: -0.142 |
| UniProt Q8IX01_C656 | inactive: 0.197 |
| WDFY1 C290 (UniProt Q8IWB7) | inactive: 0.188 |
| SLX4 C1269 (UniProt Q8IY92) | inactive: 0.464 |
| NUP54 C180 (UniProt Q7Z3B4) | inactive: 0.12 |
| FTSJ3 C52 (UniProt Q8IY81) | inactive: 0.0113 |
| SCD5 C14 (UniProt Q86SK9) | inactive: 0.247 |
| KTN1 C1105 (UniProt Q86UP2) | inactive: 0.497 |
| PARG C397 (UniProt Q86W56) | inactive: 0.184 |
| DENND4A C35 (UniProt Q7Z401) | inactive: 0.168 |
| NCAPG2 C776 (UniProt Q86XI2) | inactive: 0.186 |
| UniProt Q86Y56_C841 | inactive: -0.0103 |
| PBRM1 C138 (UniProt Q86U86) | inactive: 0.0277 |
| PHF6 C212 (UniProt Q8IWS0) | inactive: 0.0185 |
| HUWE1 C689 (UniProt Q7Z6Z7) | inactive: -0.181 |
| MEPCE C429 (UniProt Q7L2J0) | inactive: 0.28 |
| IRF2BP2 C505 (UniProt Q7Z5L9) | inactive: -0.0444 |

Laid out differently: entries from further up
Target,log2 ratio of iodoacetamide-alkyne labeling
HEATR3 C173 (UniProt Q7Z4Q2),inactive: -0.115
UniProt Q7L0Y3_C123,inactive: -0.142
UniProt Q8IX01_C656,inactive: 0.197
WDFY1 C290 (UniProt Q8IWB7),inactive: 0.188
SLX4 C1269 (UniProt Q8IY92),inactive: 0.464
FTSJ3 C52 (UniProt Q8IY81),inactive: 0.0113
PARG C397 (UniProt Q86W56),inactive: 0.184
DENND4A C35 (UniProt Q7Z401),inactive: 0.168
PHF6 C212 (UniProt Q8IWS0),inactive: 0.0185
MEPCE C429 (UniProt Q7L2J0),inactive: 0.28
IRF2BP2 C505 (UniProt Q7Z5L9),inactive: -0.0444

Following part

| Target | log2 ratio of iodoacetamide-alkyne labeling |
| --- | --- |
| TRMT2A C392 (UniProt Q8IZ69) | inactive: 0.14 |
| CAND1 C179 (UniProt Q86VP6) | inactive: 0.0508 |
| HEATR3 C655 (UniProt Q7Z4Q2) | inactive: 0.0882 |
| COMMD6 C60 (UniProt Q7Z4G1) | inactive: 0.207 |
| UniProt Q7Z2Z2_C599 | inactive: -0.126 |
| UniProt Q7Z695_C54 | inactive: 0.323 |
| TRMT2A C111 (UniProt Q8IZ69) | inactive: 0.00178 |
| WDR75 C12 (UniProt Q8IWA0) | inactive: 0.0357 |
| UniProt Q86Y56_C773 | inactive: 0.0217 |
| MEPCE C54 (UniProt Q7L2J0) | inactive: 0.274 |
| THOC6 C314 (UniProt Q86W42) | inactive: -0.0721 |
| UniProt Q7LBC6_C1451 | inactive: 0.297 |
| SUPT6H C1198 (UniProt Q7KZ85) | inactive: -0.0546 |
| DHX37 C1083 (UniProt Q8IY37) | inactive: 0.484 |
| USP48 C54 (UniProt Q86UV5) | inactive: -0.0926 |
| UniProt Q86Y56_C173 | inactive: 0.367 |
| SND1 C560 (UniProt Q7KZF4) | inactive: 0.229 |
| HUWE1 C3239 (UniProt Q7Z6Z7) | inactive: 0.0211 |
